# From US20160032278A1
# Changes are numbered by the printed parent chain. Results are given in words; binding and its absence hold for the method and conditions named. Some binding calls cover weakened binding; strength is not graded here. Where a sequence is shown, tags or fusion partners need not be part of it.
# B1: Ad-ySUMO 14 (designed binder)
# chain: NSLEIEELARFAVDEHNKKENALLEFVRVVKAKEQWFDDEYDWITMYYLTLEAKDGGKKKLYEAKVWVKDYAATDLYWNFKELQEFKPVGDA
# B2: Ad-ySUMO 8 (designed binder)
# chain: NSLEIEELARFAVDEHNKKENALLEFVRVVKAKEQIDLTQTEIVTMYYLTLEAKDGGKKKLYEAKVWVKEPGIIPIVHNFKELQEFKPVGDA
# B3: Ad-ySUMO 11 (designed binder)
# chain: NSLEIEELARFAVDEHNKKENALLEFVRVVKAKEQWILNNTQFITMYYLTLEAKDGGKKKLYEAKVWVKVLEGPDRWTVNFKELQEFKPVGDA
# B4: Ad-ySUMO 3 (designed binder)
# chain: NSLEIEELARFAVDEHNKKENALLEFVRVVKAKEQINLMMVSPMTMYYLTLEAKDGGKKKLYEAKVWVKGIQQNPSHANFKELQEFKPVGDA
# B5: Ad-ySUMO 12 (designed binder)
# chain: NSLEIEELARFAVDEHNKKENALLEFVRVVKAKEQWYERSENWDTMYYLTLEAKDGGKKKLYEAKVWVKRDYGFTLVPNFKELQEFKPVGDA
# B6: Ad-ySUMO 18 (designed binder)
# chain: NSLEIEELARFAVDEHNKKENALLEFVRVVKAKEQWIDRGQYWDTMYYLTLEAKDGGKKKLYEAKVWVKIHNGYTIMDNFKELQEFKPVGDA
# B7: Ad-ySUMO 13 (designed binder)
# chain: NSLEIEELARFAVDEHNKKENALLEFVRVVKAKEQWDLTTPINITMYYLTLEAKDGGKKKLYEAKVWVKYEDYQTPMYNFKELQEFKPVGDA
# B8: Ad-ySUMO 2 (designed binder)
# chain: NSLEIEELARFAVDEHNKKENALLEFVRVVKAKEQIDLTNSFASTMYYLTLEAKDGGKKKLYEAKVWVKDINQYWHSMNFKELQEFKPVGDA
# B9: Ad-ySUMO 6 (designed binder)
# chain: NSLEIEELARFAVDEHNKKENALLEFVRVVKAKEQIDLTEWQDRTMYYLTLEAKDGGKKKLYEAKVWVKPEPIHSHHSNFKELQEFKPVGDA
# B10: Ad-ySUMO 20 (designed binder)
# chain: NSLEIEELARFAVDEHNKKENALLEFVRVVKAKEQIDLTGQWLFTMYYLTLEAKDGGKKKLYEAKVWVKPLWQYDAQYNFKELQEFKPVGDA
# B11: Ad-ySUMO 19 (designed binder)
# chain: NSLEIEELARFAVDEHNKKENALLEFVRVVKAKEQWSEADNDWHTMYYLTLEAKDGGKKKLYEAKVWVKLDLETWQHFNFKELQEFKPVGDA
# B12: Ad-ySUMO 16 (designed binder)
# chain: NSLEIEELARFAVDEHNKKENALLEFVRVVKAKEQIDLTQSFDMTMYYLTLEAKDGGKKKLYEAKVWVKPIDSNFTGTNFKELQEFKPVGDA
# B13: Ad-ySUMO 22 (designed binder)
# chain: B12 chain
# B14: Ad-ySUMO 10 (designed binder)
# chain: NSLEIEELARFAVDEHNKKENALLEFVRVVKAKEQIIIHENDADTMYYLTLEAKDGGKKKLYEAKVWVKGIMDGLNKYNFKELQEFKPVGDA
# B15: Ad-ySUMO 7 (designed binder)
# chain: NSLEIEELARFAVDEHNKKENALLEFVRVVKAKEQWVDMDYYWRTMYYLTLEAKDGGKKKLYEAKVWVKMDEIWAEYANFKELQEFKPVGDA
# B16: Ad-ySUMO 24 (designed binder)
# chain: NSLEIEELARFAVDEHNKKENALLEFVRVVKAKEQWEDFQTHWETMYYLTLEAKDGGKKKLYEAKVWVKDVGQLLSGINFKELQEFKPVGDA
# B17: Ad-ySUMO 9 (designed binder)
# chain: NSLEIEELARFAVDEHNKKENALLEFVRVVKAKEQIDLTDVWIDTMYYLTLEAKDGGKKKLYEAKVWVKGLMTQTNSMNFKELQEFKPVGDA
# B18: Ad-ySUMO 15 (designed binder)
# chain: NSLEIEELARFAVDEHNKKENALLEFVRVVKAKEQIDLTQPHDSTMYYLTLEAKDGGKKKLYEAKVWVKYEEDEYWRMNFKELQEFKPVGDA
# B19: Ad-ySUMO 23 (designed binder)
# chain: B18 chain with Y70P, E71H, E72D, D73E, E74L, Y75N, R77N
# B20: Ad-ySUMO 17 (designed binder)
# chain: NSLEIEELARFAVDEHNKKENALLEFVRVVKAKEQWYLLDVMDDTMYYLTLEAKDGGKKKLYEAKVWVKHDRRYKQAENFKELQEFKPVGDA
# B21: Ad-ySUMO 1 (designed binder)
# chain: NSLEIEELARFAVDEHNKKENALLEFVRVVKAKEQWDLTGNVDTTMYYLTLEAKDGGKKKLYEAKVWVKWDDWGERFWNFKELQEFKPVGDA
# B22: Ad-ySUMO 4 (designed binder)
# chain: NSLEIEELARFAVDEHNKKENALLEFVRVVKAKEQIDLTHSLNYTMYYLTLEAKDGGKKKLYEAKVWVKGLTNEIQKMNFKELQEFKPVGDA
# B23: Ad-ySUMO 5 (designed binder)
# chain: B22 chain
# Target: yeast Small Ubiquitin-like Modifier protein (SUMO) (yeast) [SUMO: Q12306]
# Test: phage ELISA on biotinylated ySUMO
row,binding,Binder
1,binds,B1
2,binds,B2
3,binds,B3
4,binds,B4
5,binds,B5
6,binds,B6
7,binds,B7
8,binds,B8
9,binds,B9
10,binds,B10
11,binds,B11
12,binds,B12
13,binds,B13
14,binds,B14
15,binds,B15
16,binds,B16
17,binds,B17
18,binds,B18
19,binds,B19
20,binds,B20
21,binds,B21
22,binds,B22
23,binds,B23

# Target: yeast Small Ubiquitin-like Modifier protein (SUMO) (yeast) [SUMO: Q12306]
# Test: ELISA with biotinylated Adhiron
row,binding,Binder
1,binds,B10
2,binds,B13
3,binds,B14
4,binds,B18

# Target: yeast Small Ubiquitin-like Modifier protein (SUMO) (yeast) [SUMO: Q12306]
# Test: NMR, 1H-15N TROSY HSQC of the complex
row,binding,Binder
1,binds,B18

# Target: yeast Small Ubiquitin-like Modifier protein (SUMO) (yeast) [SUMO: Q12306]
# Test: ELISA and Western blot with biotinylated Adhiron
row,binding,Binder
1,binds,B10
2,binds,B13
3,binds,B14
4,binds,B18
